Data reported in publication PMC12368267.

Protein sequences, listed by entry. Tags and fused reporters are not part of them. Lines headed by an entry give the natural chain unless they say otherwise; changes in a name come on top.
UniProt P16455: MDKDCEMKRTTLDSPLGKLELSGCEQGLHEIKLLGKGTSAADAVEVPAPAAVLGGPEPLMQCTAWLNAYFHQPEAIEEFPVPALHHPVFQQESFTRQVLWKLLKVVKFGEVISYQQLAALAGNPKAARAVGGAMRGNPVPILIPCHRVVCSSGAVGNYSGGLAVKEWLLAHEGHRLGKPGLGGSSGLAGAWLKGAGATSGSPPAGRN
UniProt Q93009: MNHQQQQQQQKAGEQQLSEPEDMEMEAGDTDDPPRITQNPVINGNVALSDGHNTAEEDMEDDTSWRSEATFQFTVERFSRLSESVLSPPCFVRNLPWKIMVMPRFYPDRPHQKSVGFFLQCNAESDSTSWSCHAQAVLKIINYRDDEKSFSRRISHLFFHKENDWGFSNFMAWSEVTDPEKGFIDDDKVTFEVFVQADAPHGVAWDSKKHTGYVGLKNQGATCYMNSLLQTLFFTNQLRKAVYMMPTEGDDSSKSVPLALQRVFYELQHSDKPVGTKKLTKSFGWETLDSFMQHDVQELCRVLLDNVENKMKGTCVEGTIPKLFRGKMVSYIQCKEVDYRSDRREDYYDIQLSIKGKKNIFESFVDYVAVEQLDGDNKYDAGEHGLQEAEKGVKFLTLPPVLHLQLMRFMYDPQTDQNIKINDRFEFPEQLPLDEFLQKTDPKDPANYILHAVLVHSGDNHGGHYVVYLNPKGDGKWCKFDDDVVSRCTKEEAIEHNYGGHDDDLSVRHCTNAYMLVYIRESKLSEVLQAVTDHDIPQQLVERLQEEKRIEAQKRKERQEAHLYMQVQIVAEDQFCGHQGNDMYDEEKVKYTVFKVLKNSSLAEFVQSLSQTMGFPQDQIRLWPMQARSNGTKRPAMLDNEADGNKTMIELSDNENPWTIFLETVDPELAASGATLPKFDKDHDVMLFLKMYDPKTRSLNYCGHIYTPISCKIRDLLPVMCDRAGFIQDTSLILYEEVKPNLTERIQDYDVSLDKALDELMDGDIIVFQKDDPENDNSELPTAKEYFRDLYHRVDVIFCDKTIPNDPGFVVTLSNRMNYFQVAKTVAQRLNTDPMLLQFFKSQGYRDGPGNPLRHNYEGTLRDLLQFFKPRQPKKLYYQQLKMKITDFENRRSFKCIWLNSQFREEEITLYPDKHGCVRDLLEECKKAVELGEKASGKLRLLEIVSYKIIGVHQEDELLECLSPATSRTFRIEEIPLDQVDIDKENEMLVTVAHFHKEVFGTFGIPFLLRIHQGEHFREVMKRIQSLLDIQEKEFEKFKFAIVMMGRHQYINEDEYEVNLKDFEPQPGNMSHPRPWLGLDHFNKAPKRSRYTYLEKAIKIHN

Biological target: Flag-tagged MGMT (O6-methylguanine-DNA-methyltransferase), expressed in T98G cells (UniProt P16455)
Assay: affinity purification with mass spectrometry; T98G cells stably expressing Flag-MGMT lysed; anti-Flag M2 affinity beads overnight at 4 °C; five washes; elution with Flag peptides; LC-MS/MS

**Q.** For “ubiquitin-specific protease 7 (USP7), endogenous in T98G cells (from UniProt Q93009 1-1102) (enzyme)”, which binding is on record?
**A.** binds

B1: USP31, endogenous in T98G cells (enzyme, UniProt Q70CQ4 1-1352)
chain: MSKVTAPGSGPPAAASGKEKRSFSKRLFRSGRAGGGGAGGPGASGPAAPSSPSSPSSARSVGSFMSRVLKTLSTLSHLSSEGAAPDRGGLRSCFPPGPAAAPTPPPCPPPPASPAPPACAAEPVPGVAGLRNHGNTCFMNATLQCLSNTELFAEYLALGQYRAGRPEPSPDPEQPAGRGAQGQGEVTEQLAHLVRALWTLEYTPQHSRDFKTIVSKNALQYRGNSQHDAQEFLLWLLDRVHEDLNHSVKQSGQPPLKPPSETDMMPEGPSFPVCSTFVQELFQAQYRSSLTCPHCQKQSNTFDPFLCISLPIPLPHTRPLYVTVVYQGKCSHCMRIGVAVPLSGTVARLREAVSMETKIPTDQIVLTEMYYDGFHRSFCDTDDLETVHESDCIFAFETPEIFRPEGILSQRGIHLNNNLNHLKFGLDYHRLSSPTQTAAKQGKMDSPTSRAGSDKIVLLVCNRACTGQQGKRFGLPFVLHLEKTIAWDLLQKEILEKMKYFLRPTVCIQVCPFSLRVVSVVGITYLLPQEEQPLCHPIVERALKSCGPGGTAHVKLVVEWDKETRDFLFVNTEDEYIPDAESVRLQRERHHQPQTCTLSQCFQLYTKEERLAPDDAWRCPHCKQLQQGSITLSLWTLPDVLIIHLKRFRQEGDRRMKLQNMVKFPLTGLDMTPHVVKRSQSSWSLPSHWSPWRRPYGLGRDPEDYIYDLYAVCNHHGTMQGGHYTAYCKNSVDGLWYCFDDSDVQQLSEDEVCTQTAYILFYQRRTAIPSWSANSSVAGSTSSSLCEHWVSRLPGSKPASVTSAASSRRTSLASLSESVEMTGERSEDDGGFSTRPFVRSVQRQSLSSRSSVTSPLAVNENCMRPSWSLSAKLQMRSNSPSRFSGDSPIHSSASTLEKIGEAADDKVSISCFGSLRNLSSSYQEPSDSHSRREHKAVGRAPLAVMEGVFKDESDTRRLNSSVVDTQSKHSAQGDRLPPLSGPFDNNNQIAYVDQSDSVDSSPVKEVKAPSHPGSLAKKPESTTKRSPSSKGTSEPEKSLRKGRPALASQESSLSSTSPSSPLPVKVSLKPSRSRSKADSSSRGSGRHSSPAPAQPKKESSPKSQDSVSSPSPQKQKSASALTYTASSTSAKKASGPATRSPFPPGKSRTSDHSLSREGSRQSLGSDRASATSTSKPNSPRVSQARAGEGRGAGKHVRSSSMASLRSPSTSIKSGLKRDSKSEDKGLSFFKSALRQKETRRSTDLGKTALLSKKAGGSSVKSVCKNTGDDEAERGHQPPASQQPNANTTGKEQLVTKDPASAKHSLLSARKSKSSQLDSGVPSSPGGRQSAEKSSKKLSSSMQTSARPSQKPQ
**Q.** How did the binding turn out when B1 was run?
**A.** binds

No constants are given. Whether binding was seen depends on the method and setting. Binding seen in cells or lysates may run through a third protein. Here binding means that the protein was enriched with, or labelled near, the bait; the list need not be complete.
